According to patent US11116732B2, “Carotenoid-containing cognitive function improving composition for use in exercise therapy for improving cognitive function” (ASTAREAL CO., LTD., priority 2016, dated 2021):

System: hippocampal gene expression
Assay: Hippocampal gene expression by DNA microarray and IPA network analysis
Format: in vivo, mouse
Conditions: ME+ASX group
Excerpt: All the mice used in this experiment were divided so that the weight was equalized at the preliminary breeding end point. These were divided into three groups of placebo+rest (CON), placebo+low intensity exercise (ME), and low intensity exercise+0.5% ASX uptake (ME+ASX) (each n=8). Mice were bred each one per a cage.
The brain was removed two days after 4 weeks training and ASX uptake. The hippocampus was fractionated from the collected brain (Hirano M, Rakwal R, Shibato J, Sawa H, Nagashima K, Ogawa Y, Yoshida Y, Iwahashi H, Niki E, Masuo Y. Proteomics- and transcriptomics-based screening of differentially expressed proteins and genes in brain of Wig rat: a model for attention deficit hyperactivity disorder (ADHD) research. J Proteome Res 7: 2471-2489, 2008). The hippocampus was immediately frozen with liquid nitrogen and stored in a freezer at −80° C.
In this experiment, SurePrint G3 mouse 8×60K whole genome DNA microarray chip (G4858A, Agilent Technologies, Palo Alto, Calif., USA) was used for RNA analysis. In the following, the procedure is shown.
1) Mixing of RNA: RNA extracted from hippocampus samples of each individual (n=8, 250 ng/1 individual) was mixed for each group.
2) Labeling of RNA: RNA extracted from each sample is labeled with Cy3 and Cy5 dyes (Two-color labeling) using an Agilent Low RNA Input Fluorescent Linear Amplification Kit (Agilent Technologies).
3) Hybridization: Samples of fluorescently labeled control group (CON group) and experiment group (ME group, ME+ASX group) are assayed on the same Microarray chip and hybridized with a 60 base pair probe on the slide glass. Conditions for hybridization and washing were in accordance with the conditions of the manufacturer. 4) Scan: Hybridized Microarray chip was scanned with Agilent Microarray scanner G2505C. 5) Processing of scan data: In order to clarify the change in gene expression in the experiment group using the control group as a control, slide images were processed using Agilent Feature Extraction software. In the program at this time, the color intensity of Cy3 and Cy5 of all the probes was measured. 6) Standardization of data: For standardization of data, LOWESS (locally weighted linear regression) was used, and logarithmic and logarithmic error rates standardized from Cy3 and Cy5 signals were calculated. The level of significance at this time was set at 1%. 7) Data acquisition: A list of genes that came out up to 6) was prepared using GeneSpring version GX 10 (Agilent). The gene list was created by extracting only genes whose gene expression was enhanced by 1.5-fold or more and genes suppressed to 0.75-fold or less with both intensities using the control group as a control. […]

Structure (SMILES): CC1=C(/C=C/C(C)=C/C=C/C(C)=C/C=C/C=C(C)/C=C/C=C(C)/C=C/C2=C(C)C(=O)[C@@H](O)CC2(C)C)C(C)(C)C[C@H](O)C1=O [ASX, astaxanthin]
- number of genes enhanced by 1.5-fold or more as compared with the CON group (microarray, 55,681 genes): 3,891
- number of genes suppressed to 0.75-fold or less as compared with the CON group (microarray): 411
- number of hippocampal genes (IPA) suppressed only by ME+ASX (not in ME): 14
- number of hippocampal genes (IPA) whose expression was enhanced only by ME+ASX (not in ME): 108
